# Measurements: PubChem BioAssay AID2685 (National Center for Advancing Translational Sciences (NCATS), 2010)
# In all, about 320,000 compounds went through this assay and about 2,100 (0.66%) were called active. Inconclusive means that the source gave no clear call. Such entries were picked first, then a sample of the others. Calls follow the shape of the dose curve; as a rule, active = well fitted inhibition curve with a large enough effect in the signal ratio, with a control signal flat (not every such curve was filed as active); inconclusive = small, poorly fitted or top-dose-only effect, or effect the other way, or a change in a side signal; inactive = flat fitted curve, though single readings scatter; the % refers to the signal ratio. A potency beside an inconclusive call is a rough fit, not a confirmed value.
# Assay: qHTS Assay for Lipid Storage Modulators in Drosophila S3 Cells
# Settings: BODIPY lipid droplet fluorescence, 18-24 h, cells fed with added oleic acid; lipid storage change, negative = inhibition: at 46.1 µM (top of the series) unless noted
# Method in brief: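 Drosophila S3 cells loaded with oleic acid (400 uM, as added) and compounds at several concentrations; lipid droplets imaged by 488-nm laser-scanning cytometry, 500–530 nm intensity and object ratio to cell channel. Percent activity normalized to 20 uM Triacsin C.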
# % is scaled to controls: 0 for no effect and ±100 for the full control effect; potency is read from the fitted curve at half-maximal effect.
SMILES,"lipid storage change, negative = inhibition",Potency
CCn1c(SCC(=O)NC2CCCCC2)nc2c(c1=O)SCC2,inconclusive: 23.7%,–
COC(=O)COc1cc(Cl)c(C=O)cc1OC,inconclusive: -24.4% [at 9.22 µM],–
COC(=O)c1cc(S(=O)(=O)N2CCN(c3cccc(OC)c3)CC2)cn1C,inconclusive: -17%,–
CCc1ccc(NC(=O)CSc2nc3ccccc3nc2N2CCCCC2)cc1,–,active: 13 µM
O=C1CCN(Cc2ccccc2)CCN1[C@H](CO)Cc1ccccc1,inconclusive: 75.8%,–
Cc1cc(/C=C2/NC(=O)N(c3ccccc3)C2=O)c(C)n1C(C)C,inconclusive: 28.9%,–
CCN(c1cccc(C)c1)S(=O)(=O)c1ccc(-c2coc(C)n2)cc1,inconclusive: 21.9%,–
CC(CN1CCOCC1)OC(=O)c1cccc(Cl)c1 (centres undefined),inconclusive: 41.7%,–
CC(=O)OC1COC(n2c(O)c(N=NC(N)=S)c3ccccc32)C(OC(C)=O)C1OC(C)=O (centres undefined),–,"inconclusive: 4.11 µM [falling, full curve, poor fit]"
COc1cc(CNCc2cccnc2)ccc1OCC(=O)NC1CCCCC1,inconclusive: -18.3%,–
Cc1cccc(C)c1NC(=O)CN1CCN(C(=O)CNC(=O)c2ccc(N3CCCC3=O)cc2)CC1,–,"inconclusive: 23.1 µM [activator, partial curve, poor fit]"
COc1ccccc1C(=O)NCC(=O)N/N=C(\C)Cc1ccccc1,inconclusive: 16.8%,–
C/C(N)=C(/C#N)C(=O)CSc1nc2ccccc2c(=O)n1-c1ccccc1C,inconclusive: 18.9%,–
Cc1csc(-c2cccnc2)n1,inconclusive: 20.7%,–
Cn1c(=O)c2ccccc2n(Cc2cccc(F)c2)c1=O,inconclusive: -28.4%,–
Cc1cc(C(C)(C)C)ccc1OCCN1CCCC1,inconclusive: -43.4%,–
CCc1ccc2nc(N3C(=O)c4oc5ccccc5c(=O)c4C3c3ccc(OC)c(OC)c3)sc2c1 (centres undefined),inconclusive: 8.68%,–
COc1ccc(-c2cc(C(=O)N3CCc4ccccc4C3)no2)cc1OC,inconclusive: -45.2%,–
Cc1ccsc1/C=C(\C#N)C(=O)NCc1ccco1,inconclusive: 20.9%,–
O=C(c1ccc(F)cc1F)N1CCN(c2ncccn2)CC1,inconclusive: 0.751%,–
O=C(O)C1C2CCCCC2=C2CCCCC2C1C(=O)O (centres undefined),–,"inconclusive: 0.184 µM [falling, full curve]"
Cc1ccc(-c2cc(C(=O)NN=C3CCCC3)c3ccccc3n2)cc1,–,"inconclusive: 29.1 µM [rising, single point]"
CCNC(=S)NNC(=O)c1cc(-c2ccc(OCC)cc2)nc2ccccc12,–,"inconclusive: 6.51 µM [activator, single point]"
O=C(Nc1ccc(NC(=O)c2cccs2)cc1Cl)c1ccco1,inconclusive: -2.57%,–
Cc1sc2ncn(CC(=O)NCCCC(=O)N(C)Cc3ccccc3)c(=O)c2c1C,–,"inconclusive: 0.731 µM [activator, full curve, poor fit]"
Cc1ccc2c(COC(=O)c3cnc(C)cn3)cc(=O)oc2c1,inconclusive: -29.3%,–
CSc1ccc(CSCC(=O)N2CCN(S(=O)(=O)c3ccc(C)cc3C)CC2)cc1,–,"inconclusive: 3.26 µM [falling, partial curve]"

# Record cards, as listed above.
# COc1cc(CNCc2cccnc2)ccc1OCC(=O)NC1CCCCC1 is listed with lipid storage change, negative = inhibition: inconclusive: -18.3%
# CC(CN1CCOCC1)OC(=O)c1cccc(Cl)c1 (centres undefined) is listed with lipid storage change, negative = inhibition: inconclusive: 41.7%
# COc1ccc(-c2cc(C(=O)N3CCc4ccccc4C3)no2)cc1OC is listed with lipid storage change, negative = inhibition: inconclusive: -45.2%

# Quoted at random: 2 records from the list
SMILES,"lipid storage change, negative = inhibition",Potency
CCN(c1cccc(C)c1)S(=O)(=O)c1ccc(-c2coc(C)n2)cc1,inconclusive: 21.9%,–
CCn1c(SCC(=O)NC2CCCCC2)nc2c(c1=O)SCC2,inconclusive: 23.7%,–

# The list goes on:

SMILES,"lipid storage change, negative = inhibition",Potency
COc1ccc(CNC(=O)c2ccc(N3CCOCC3)c([N+](=O)[O-])c2)cc1,inconclusive: 3.9%,–
Cc1cccc(N2CCN(C(=S)NCc3ccco3)CC2)c1C,inconclusive: 17.4%,–
CCCCC1CN2CCc3c([nH]c4ccccc34)C2(C)C1 (centres undefined),–,"inconclusive: 18.4 µM [falling, single point]"
COc1ccc2oc(=O)c(-c3ccccc3C(=O)N3CCOCC3)cc2c1,inconclusive: 40%,–
O=C(CNS(=O)(=O)c1ccc2ccccc2c1)NCCc1ccccn1,–,"inconclusive: 0.146 µM [rising, single point]"
COc1ccc(C(CC(=O)Nc2ccccn2)N2Cc3ccccc3C2=O)cc1 (centres undefined),inconclusive: 18.3%,–
Nc1ccccc1SC1CC(=O)N(c2ccc3c(c2)OCO3)C1=O (centres undefined),–,"inconclusive: 0.291 µM [activator, partial curve, poor fit]"
CC(/C=C1\SC(=S)N(NS(=O)(=O)c2ccccc2)C1=O)=C\c1ccccc1,inconclusive: 14.4%,–
COc1ccc(C(CNC(=O)c2cc(S(=O)(=O)N3CCCC3)ccc2Cl)N2CCCC2)cc1 (centres undefined),inconclusive: 5.98%,–
CCC(=O)c1ccc(OCC(O)CNC2CCCC2)cc1 (centres undefined),inconclusive: -30.4%,–
Cc1cccc(C(=O)NCCCNC(=O)c2cccnc2)c1,inconclusive: 30.1%,–
CCN(CC(=O)Nc1c(F)cccc1F)C(=O)C1CCC1,inconclusive,–
CCc1cc(-c2n[nH]c(=S)n2-c2ccccc2C)cs1,inconclusive: 4.14%,–
COc1cc(OC)c(OC)cc1/C=C(\C#N)C(=O)NCc1cccs1,–,"inconclusive: 0.013 µM [falling, partial curve, poor fit]"
Cc1cccc(Nc2nnc(SCC(=O)NC(=O)CN3CCCC3=O)s2)c1,inconclusive: -43%,–
O=C(NC1CCCCC1)C1CCN(c2nccs2)CC1,inconclusive: 13.5%,–
O=C(Cc1ccccc1)NCC(=O)Nc1cccc(Cl)c1,inconclusive: -13.7%,–
CCN(CC)S(=O)(=O)c1ccc(C(=O)NCCN(C)C)cc1,inconclusive: 18%,–
CCOc1ccc(C(=O)Nc2nnn(CC)n2)cc1,–,"inconclusive: 2.91 µM [falling, full curve, poor fit]"
CN(c1ccccc1)S(=O)(=O)c1ccc(Cl)c(C(=O)Nc2nn[nH]n2)c1,inconclusive: 26.7%,–
CCOc1ccc(NC(=O)CN2CCN(CC(=O)Nc3ccc(C(=O)OC)cc3)CC2)cc1,inconclusive: 35.3%,–
COCCCNc1nc2c(c(=O)n(Cc3ccc(Cl)cc3)c(=O)n2C)n1C,–,"inconclusive: 14.6 µM [falling, partial curve]"
COc1ccc(CNc2nc3ccc(C)cc3s2)c(OC)c1OC,inconclusive: -12.6%,–
Cc1ccc(C)c(S(=O)(=O)NC(C)C(=O)NCc2ccccn2)c1 (centres undefined),–,"inconclusive: 0.58 µM [falling, single point]"
CCC(c1nnnn1CCOC)N1CCN(Cc2ccccc2OC)CC1 (centres undefined),inconclusive: -57.4%,–
Cc1ccc(C(=O)CCC(=O)NNC(=O)c2ccccc2O)cc1,inconclusive: -53.6%,–
NS(=O)(=O)c1ccc(-c2ccc(/C=C3\SC(=S)N(C4CCS(=O)(=O)C4)C3=O)o2)cc1 (centres undefined),inconclusive: -41.5%,–

SMILES,"lipid storage change, negative = inhibition",Potency
COc1ccc(OC)c(S(=O)(=O)N2CCC(C(=O)NC3CCCCC3)CC2)c1,–,"inconclusive: 29.1 µM [activator, single point]"
CCN(CC(=O)Nc1c(F)cccc1F)C(=O)CCCc1nc2ccccc2c(=O)[nH]1,inconclusive: 10.8%,–
O=C(NCCOC(=O)c1ccc(Cl)cc1)c1cccnc1,inconclusive: -0.973%,–
Clc1ccc(-c2nn3c(-c4ccncc4)nnc3s2)c(Cl)c1,inconclusive: 10.8%,–
O=C(NCC(=O)N1CCN(c2ccccc2O)CC1)c1ccc(Br)o1,–,"inconclusive: 11.6 µM [rising, partial curve]"
Nc1nnc(CCOc2ccc(Cl)cc2)s1,inconclusive: 4.42%,–
COc1cc(/C=N/Nc2ccc(C(F)(F)F)cn2)ccc1O,inconclusive: 2.62%,–
CCOC(=O)c1c(N2C(=O)C3CC(C)=C(C)CC3C2=O)sc(C)c1C (centres undefined),–,"inconclusive: 2.31 µM [activator, full curve]"
Cc1nc(-n2[nH]c3c(c2=O)CCCC3)[nH]c(=O)c1Cc1ccccc1,inconclusive: -26.4%,–
CCOC(=O)C(C)c1c(C(=O)c2ccc(C)nc2)c2ccccc2n1C (centres undefined),inconclusive: -5.56%,–
CCOc1cc(N2CCOCC2)c(OCC)cc1NC(=O)CN1C(=O)NC2(CCCCC2C)C1=O (centres undefined),inconclusive,–
CC1CCCC(NC(=O)C2CCC(CNc3c(N4CCCCC4)c(=O)c3=O)CC2)C1C (centres undefined),inconclusive: -7.26%,–
Cc1cc(NC(=O)COC(=O)COc2ccc3c(c2)CCC3)no1,inconclusive: -17.8%,–
O=C(NCCC1CCCCN1S(=O)(=O)c1ccccc1)C(=O)NCc1ccccc1F (centres undefined),inconclusive: -38.8%,–
CCc1ccc(S(=O)(=O)Nc2cc3c(cc2N2CCCCC2)n(C)c(=O)c(=O)n3C)cc1,inconclusive: -48.8%,–
CC1CCCCN1c1nnc(N)s1 (centres undefined),inconclusive: 21.8%,–
COc1cc(CN2CCCC(CO)(Cc3ccccc3)C2)ccc1O (centres undefined),–,"inconclusive: 29.1 µM [falling, single point]"
CC(=O)N(/N=C/c1cccc(C)c1)c1nc(-c2ccc(Br)cc2)cs1,inconclusive: 5.42%,–
O=C(Nc1cccnc1Cl)c1cccc(F)c1,inconclusive: -47.8% [cytotoxic] [at 0.369 µM],–
Cc1cccc2nc(-c3cccnc3)c(NCCC(C)C)n12,inconclusive: -21%,–
O=C(COC(=O)CCNS(=O)(=O)c1ccc2c(c1)OCCO2)NC1CCCc2ccccc21 (centres undefined),inconclusive: -65.5%,–
COc1cc(C(=O)NC(=S)Nc2cccc3nc(C)ccc23)cc(OC)c1OC,inconclusive: -25.4%,–
O=C(CN1CCc2ccccc2C1)Nc1cccc(S(=O)(=O)N2CCCC2)c1,inconclusive: -12.7%,–
Cc1ccc(S(=O)(=O)Nc2c(C(=O)O)[nH]c3ccccc23)cc1C,inconclusive: 137%,–
Cc1cc(C(=O)CSc2nnc(-c3ccco3)o2)c(C)n1CC1COc2ccccc2O1 (centres undefined),–,"inconclusive: 1.16 µM [activator, partial curve]"
